Source: PubChem BioAssay AID2685 (National Center for Advancing Translational Sciences (NCATS), 2010)
The other results are listed elsewhere or left out. Further columns of the screen follow, without active or inactive calls. The list favours compounds with an active or inconclusive main result. The note in brackets gives the kind of curve behind each potency; many fits are weak.

Assay: qHTS Assay for Lipid Storage Modulators in Drosophila S3 Cells;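 for cell number change: cells counted by Cell Tracker Red CMTPX staining in the red channel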
Details: BODIPY lipid droplet fluorescence, 18-24 h; for cell number change: measured here: cell count max response, cells fed with added oleic acid
How it was run: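 Laser-scanning cytometry quantifies lipid droplet accumulation (500–530 nm total intensity; droplet/cell object ratio) in oleic acid-fed (400 uM added) Drosophila S3 cells treated with a concentration series. 20 uM Triacsin C defined 100% inhibition.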

[1] = measured here: lipid fluorescence (Fed channel) AC50, cells fed with added oleic acid
[2] = measured here: cell number channel AC50, cells fed with added oleic acid

| Compound | cell number change [%] | AC50 [1] | AC50 [2] |
| --- | --- | --- | --- |
| Cc1nc2cc(-c3cccc(F)c3)nn2c(C)c1CCC(=O)NC(C)c1ccc2c(c1)OCCO2 (centres undefined) | -13 | 1.46 µM [rising, partial curve] |  |
| O=C(Nc1cccc(NC(=O)C2C3CC4OC(=O)C2C4C3)c1)c1ccccc1 (centres undefined) | -4.08 | 0.13 µM [falling, full curve, poor fit] |  |
| O=C(COC(=O)c1ccc(O)cc1)Nc1ccc(OC(F)F)cc1 | 16.5 | 6.51 µM [rising, partial curve, poor fit] |  |
| CCC(C)C(=O)Nc1nnc(SCC(=O)NC(C)(C)C)s1 (centres undefined) |  |  | 0.0184 µM [falling, single point] |
| CCOc1ccc(S(=O)(=O)N(CC(=O)NCc2ccncc2)c2ccc(C)cc2)cc1 | 7.5 |  |  |
| O=C(O)CC1C(=O)NCCN1C/C=C/c1ccccc1 (centres undefined) | -19.7 | 25.9 µM [falling, partial curve, poor fit] |  |
| COc1cccc(NC(=O)COC(=O)CC(NC(N)=O)c2ccc(Cl)cc2)c1 (centres undefined) | 16.7 |  |  |
| CNC(=O)NC(=O)CSc1ncc(C(F)(F)F)cc1Cl | -2.99 | 0.651 µM [falling, full curve, poor fit] |  |
| O=C(N/N=C\c1ccc2c(c1)OCO2)c1ccc(Cn2cc(Br)c([N+](=O)[O-])n2)o1 | -34.9 | 29.1 µM [falling, single point] | 23.1 µM [falling, single point] |
| Cc1ccc(NC(=O)C(=O)NCC2CCCO2)cc1 (centres undefined) |  | 0.146 µM [falling, full curve, poor fit] | 0.146 µM [falling, full curve, poor fit] |
| Cc1ccc(C)c(NC(=O)COC(=O)CCCN=C2NS(=O)(=O)c3ccccc32)c1 | 11.2 | 0.92 µM [rising, full curve, poor fit] |  |
| CCCC(=O)C1=C(O)C(C(=O)OC)C(C)(C)CC1=Nc1ccc(N)cc1 (centres undefined) | 12.9 | 0.366 µM [rising, full curve, poor fit] | 0.326 µM [rising, partial curve, poor fit] |
| COCCn1c(SCC(=O)N2CCCCCC2)nc2c([nH]c3ccccc32)c1=O | -23.6 | 29.1 µM [falling, single point] |  |
| COc1ccccc1-c1nc2ccccc2c(=O)n1O | 18.4 |  |  |
| Cc1cccc(NS(=O)(=O)c2cc(C(=O)NCCC3=CCCCC3)ccc2Cl)c1 | 75.7 |  | 6.51 µM [falling, partial curve, poor fit] |
| Cc1ccnc(NC(=O)CNC(=O)c2ccc3ccccc3c2)c1 | 41.6 |  | 23.1 µM [rising, single point] |
| Cc1nc(CC(=O)O)c(-c2ccccc2)s1 | -5.55 |  |  |
| C=C(C)c1cccc(C(C)(C)NC(=O)N2CCCCC2CC)c1 (centres undefined) | 10.3 | 0.146 µM [falling, full curve] |  |
| COc1ccc(NC(=O)CSCC(=O)NCc2ccco2)cc1 | -50 | 29.1 µM [falling, single point] | 4.11 µM [falling, partial curve] |
| O=C(CNC(=O)c1ccco1)OCC(=O)c1ccc2ccccc2c1 | -7.1 |  | 4.61 µM [falling, single point] |

Reformatted with tabs: part of the list above.
Compound	cell number change [%]	AC50 [1]	AC50 [2]
O=C(O)CC1C(=O)NCCN1C/C=C/c1ccccc1 (centres undefined)	-19.7	25.9 µM [falling, partial curve, poor fit]	
COc1cccc(NC(=O)COC(=O)CC(NC(N)=O)c2ccc(Cl)cc2)c1 (centres undefined)	16.7		

(list continues)

| Compound | cell number change [%] | AC50 [1] | AC50 [2] |
| --- | --- | --- | --- |
| Cc1ccc(OCCOC(=O)c2nc3nccc(C)n3n2)cc1 | 15.3 |  |  |
| CS(=O)(=O)N1CCN(c2ccccc2NC(=O)c2ccc(-c3ccc(Br)cc3)o2)CC1 |  |  | 0.58 µM [rising, single point] |
| CCOC(=O)N1CCC(NC(=O)c2cc(C(=O)Nc3ccc(F)cc3F)ccc2CO)CC1 | -15.2 | 7.31 µM [rising, single point] |  |
| CC(CNC(=O)c1cccc(Br)c1)n1cncn1 (centres undefined) | 3.16 | 0.651 µM [rising, single point] |  |
| COc1ccccc1N1CCN(C(=O)c2ccc(N(C)S(=O)(=O)c3ccccc3)cc2)CC1 | 16.1 |  |  |
| Cc1cccc(-c2cccc(NC(=O)C3CCCN(C(=O)c4ocnc4C)C3)c2)c1 (centres undefined) |  |  | 6.51 µM [falling, single point] |
| NS(=O)(=O)c1ccc(NC(=O)CSc2nc3ccccc3nc2N2CCOCC2)cc1 | 2.59 | 9.2 µM [falling, partial curve] |  |
| O=C1COc2ccc(S(=O)(=O)CCC(=O)N3CCN(c4cccc(Cl)c4)CC3)cc2N1 | 8.06 | 3.26 µM [rising, single point] |  |
| COc1ccccc1NC(=O)Cc1cccs1 | -15.8 | 10.3 µM [rising, partial curve] |  |
| COc1ccc(Br)cc1/C=N/NC(=O)C(c1ccncc1)N1CCOCC1 (centres undefined) | 2.2 | 0.92 µM [falling, full curve, poor fit] |  |
| O=C(NCCOc1ccccc1)c1cc2ccccc2o1 | -25.8 | 0.146 µM [rising, full curve, poor fit] |  |
| COc1ccc(N2CC(C(=O)Nc3ccc(S(=O)(=O)N4CCOCC4)cc3)CC2=O)cc1 (centres undefined) | -24.1 | 0.13 µM [falling, full curve, poor fit] | 0.0184 µM [falling, full curve, poor fit] |
| CCOC(=O)c1ccc(S(=O)(=O)N2CCN(C(=O)C3CSC4(C)CCC(=O)N34)CC2)cc1 (centres undefined) | 5.5 | 29.1 µM [rising, single point] |  |
| CC(C)c1cccc(C(C)C)c1OC(=O)[C@H]1OC(c2ccc(Br)cc2)=C[C@@H]1c1ccc(Br)cc1 | -50.7 |  | 9.2 µM [falling, single point] |
| O=C(CCNS(=O)(=O)c1ccccc1C(F)(F)F)N1CCCCCCC1 | 4.03 | 8.2 µM [falling, partial curve, poor fit] |  |
| COc1ccccc1OCc1ccc(C(=O)N(C)C)o1 |  | 0.651 µM [rising, single point] |  |
| COC(=O)c1c(C)[nH]c(C(=O)CN(C)CC(=O)Nc2cccc(F)c2)c1C | 2.2 | 16.4 µM [rising, single point] |  |
| CCOC(=O)NC(=O)CSc1nc2ccc(OCC)cc2[nH]1 | -18.4 | 4.11 µM [falling, single point] |  |
| Cc1cc(NS(=O)(=O)c2ccc(NC(=O)COc3ccc(Br)cc3)cc2)nc(C)n1 |  | 29.1 µM [falling, single point] |  |
| CCN(CC)CCSc1nnc2c3cc(C)ccc3n(Cc3ccccc3)c2n1 | 5.73 |  |  |

Part of the list above in order of molecular weight, low to high.

| Compound | cell number change [%] | AC50 [1] | AC50 [2] |
| --- | --- | --- | --- |
| CCOC(=O)NC(=O)CSc1nc2ccc(OCC)cc2[nH]1 | -18.4 | 4.11 µM [falling, single point] |  |
| Cc1cccc(-c2cccc(NC(=O)C3CCCN(C(=O)c4ocnc4C)C3)c2)c1 (centres undefined) |  |  | 6.51 µM [falling, single point] |
| CC(C)c1cccc(C(C)C)c1OC(=O)[C@H]1OC(c2ccc(Br)cc2)=C[C@@H]1c1ccc(Br)cc1 | -50.7 |  | 9.2 µM [falling, single point] |

(listing goes on)

| Compound | cell number change [%] | AC50 [1] | AC50 [2] |
| --- | --- | --- | --- |
| COCCNC(=O)COc1ccc(Nc2ccccc2)cc1 | 13.1 |  |  |
| Cc1cccc2c(=O)cc(C)n(Cc3ccccc3)c12 | -12.1 | 0.731 µM [rising, full curve] |  |
| CCOc1c2ccc(C(=O)N[C@H](C)C3CCCCC3)cc2nn1CCOC | -12.2 |  |  |
| Cc1ccc(-n2[nH]c(C)c(CCC#N)c2=O)cc1 |  | 0.164 µM [rising, full curve, poor fit] |  |
| CCC(C)Sc1nc2c(c(=O)[nH]1)C(c1cccs1)C1=C(CCCC1=O)N2 (centres undefined) | -49.3 | 23.1 µM [falling, partial curve] | 23.1 µM [falling, partial curve] |
| Cc1ccc(NC(=O)c2ccc(C)cc2)cc1 | 20.2 | 29.1 µM [rising, single point] |  |
| Cc1nc2c(C)cccc2cc1C(=O)N/N=C/c1ccc(N(C)C)cc1 | 14.7 |  |  |
| Cc1nn(CC(=O)NC2CCC(C)CC2)c(C)c1[N+](=O)[O-] (centres undefined) | -4.85 | 0.0651 µM [falling, full curve, poor fit] |  |
| COc1cccc(CNC(=O)c2cccc(S(=O)(=O)N3CCN(c4ccc(F)cc4)CC3)c2)c1 | 17.1 | 2.06 µM [rising, partial curve] |  |
| Cc1ccc(NC(=O)CSc2nc3nc(C)cc(C)c3c(=O)[nH]2)cc1 | -37.4 |  | 29.1 µM [falling, single point] |
| COc1ccc(CNC(=O)C23CC4CC(CC(Br)(C4)C2)C3)cc1 | 13.9 | 6.51 µM [rising, single point] |  |
| C(=C\c1nccc2c1[nH]c1ccccc12)/c1ccccc1 | 40.3 | 29.1 µM [falling, single point] | 11.6 µM [rising, partial curve, poor fit] |
| Cc1cccc(NC(=O)c2n[nH]c([N+](=O)[O-])c2Br)c1C |  | 29.1 µM [falling, single point] |  |
| COC(=O)/C(C#N)=C/c1c(Oc2cccc(C)c2)nc2ccccn2c1=O | 5.38 | 1.03 µM [rising, partial curve, poor fit] | 0.326 µM [rising, single point] |
| COc1cccc(NC(=O)c2csc3c2CCCC3)c1 | 45.6 | 0.103 µM [rising, full curve, poor fit] | 6.51 µM [falling, partial curve, poor fit] |
| COc1ccc(NC(=O)c2ccco2)cc1NC(=O)c1ccc(Br)o1 |  | 0.259 µM [rising, partial curve, poor fit] |  |
| COC(=O)c1ccc(C(C(=O)NC2CCCCC2)N(Cc2ccccc2)C(=O)Cc2cccs2)cc1 (centres undefined) | -8.31 | 0.58 µM [falling, full curve] |  |
| Cc1cc(NC(=O)C2C3C(=O)N(Cc4ccc(Cl)cc4)C(C(=O)NC(C)(C)C)C34C=CC2(C)O4)no1 (centres undefined) | -24.4 | 2.91 µM [falling, full curve, poor fit] |  |
| COc1cccc(N2CC(O)=C(c3ccccc3)C2=N)c1 |  | 2.31 µM [rising, partial curve] |  |
| Cc1nc(SCC(=O)NCCc2ccccc2)nc(C)c1C | 80.7 |  | 18.4 µM [rising, partial curve] |
